Experimental data reported in patent US20220119868A1, “PROFILING RNA-SMALL MOLECULE BINDING SITES WITH OLIGONUCLEOTIDES” (priority 2018, published 2022).
Some entries share one result that the patent states for a list of compounds.

Key:
[1] = test system: RNAs with Zobs>8; assay: Biolayer interferometry (label-free); assay type: binding
[2] = test system: selected RNAs; assay: Fluorescence-based affinity, summary for selected RNAs; assay type: binding; conditions: fluorescence-based assay

Row | Compound | bind RNAs with Zobs>8 more tightly than motifs with Zobs<8 and base paired control RNAs [1] | bind more tightly than non-selected RNAs and a fully base paired RNA control [2] [fold]
1 | O=C(Nc1ccc(C2=NCCN2)cc1)c1cc(C(=O)Nc2ccc(C3=NCCN3)cc2)cc(C(=O)Nc2ccc(C3=NCCN3)cc2)c1 [Compound 8] | at least 10 fold | > 10
2 | O=C(Nc1cccc(NC(=O)Nc2cc(C(=O)Nc3ccc(C4=NCCN4)cc3)ccc2C(=O)Nc2ccc(C3=NCCN3)cc2)c1)Nc1cc(C(=O)Nc2ccc(C3=NCCN3)cc2)ccc1C(=O)Nc1ccc(C2=NCCN2)cc1 [Compound 7] | at least 10 fold | –
